Experiment: general procedure: peptide synthesis; 2-chlorotrityl resin; HATU; PyAOP

Row | Substance | step yield (coupling step) | step yield (late stage modification step) | final purity (method not given) (late stage modification step) | further results
1 | tri-tert-butyl (3S,10S,14S)-1-{(1r,4S)-4-[({[(9H-fluoren-9-yl)methoxy]carbonyl}amino)methyl]cyclohexyl}-3-[(naphthalen-2-yl)methyl]-1,4,12-trioxo-2-[(6-oxo-1,6-dihydropyridin-2-yl)methyl]-2,5,11,13-tetraazahexadecane-10,14,16-tricarboxylate | 11% yield |  |  | 
2 | tri-tert-butyl (3S,10S,14S)-1-{(1r,4S)-4-[({[(9H-fluoren-9-yl)methoxy]carbonyl}amino)methyl]cyclohexyl}-1,4,12-trioxo-3-[(quinolin-3-yl)methyl]-2,5,11,13-tetraazahexadecane-10,14,16-tricarboxylate | 31% yield |  |  | final purity (method not given) (coupling step): 100% purity
3 | N^6—{N-[(1r,4S)-4-({2-[4-({2-[{3-[bis(2-{[1-(carboxymethyl)-3-hydroxy-6-methyl-2-oxo-1,2-dihydropyridine-4-carbonyl]amino}ethyl)amino]propyl}(2-{[1-(carboxymethyl)-3-hydroxy-6-methyl-2-oxo-1,2-dihydropyridine-4-carbonyl]amino}ethyl)amino]ethyl}carbamoyl)-3-hydroxy-6-methyl-2-oxopyridin-1(2H)-yl]acetamido}methyl)cyclohexane-1-carbonyl]-3-(quinolin-3-yl)-L-alanyl}-N^2-{[(1S)-1,3-dicarboxypropyl]carbamoyl}-L-lysine |  | 104% yield |  | crude purity (method not given) (late stage modification step): 95% purity
4 | N^6—{N-[(1r,4S)-4-(aminomethyl)cyclohexane-1-carbonyl]-3-fluoro-L-phenylalanyl}-N^2-{[(1S)-1,3-dicarboxypropyl]carbamoyl}-L-lysine |  | 59% yield | 98% purity | 
5 | (3S,10S,14S)-3-[(naphthalen-2-yl)methyl]-1,4,12-trioxo-1-[4-({2-[4,7,10-tris(carboxymethyl)-1,4,7,10-tetraazacyclododecan-1-yl]acetamido}methyl)phenyl]-2,5,11,13-tetraazahexadecane-10,14,16-tricarboxylic acid |  | 21% yield | 95% purity | 
6 | tri-tert-butyl (3S,10S,14S)-1-[4-(aminomethyl)phenyl]-3-[(naphthalen-2-yl)methyl]-1,4,12-trioxo-2,5,11,13-tetraazahexadecane-10,14,16-tricarboxylate |  | 23% yield | 70% purity | 
7 | tri-tert-butyl (3S,10S,14S)-1-{(1r,4S)-4-[({[(9H-fluoren-9-yl)methoxy]carbonyl}amino)methyl]cyclohexyl}-3-[(4-methylphenyl)methyl]-1,4,12-trioxo-2,5,11,13-tetraazahexadecane-10,14,16-tricarboxylate | 64% yield |  |  | final purity (method not given) (coupling step): 98% purity
8 | N^6—{N-[(1r,4S)-4-(aminomethyl)cyclohexane-1-carbonyl]-4-tert-butyl-L-phenylalanyl}-N^2-{[(1S)-1,3-dicarboxypropyl]carbamoyl}-L-lysine |  | 27% yield | 90% purity | 
9 | tri-tert-butyl (3S,10S,14S)-1-[(1r,4S)-4-(aminomethyl)cyclohexyl]-3-[(1-bromonaphthalen-2-yl)methyl]-1,4,12-trioxo-2,5,11,13-tetraazahexadecane-10,14,16-tricarboxylate |  | 37% yield |  | 
10 | tri-tert-butyl (3S,10S,14S)-1-[(1r,4S)-4-(aminomethyl)cyclohexyl]-1,4,12-trioxo-3-{[3-(pentafluoro-lambda^6-sulfanyl)phenyl]methyl}-2,5,11,13-tetraazahexadecane-10,14,16-tricarboxylate |  | 51% yield | 95% purity | 
11 | (4S,11S,15S)-1-(4-aminophenyl)-4-[(naphthalen-2-yl)methyl]-2,5,13-trioxo-3,6,12,14-tetraazaheptadecane-11,15,17-tricarboxylic acid |  | 41% yield | 95% purity | 
12 | tri-tert-butyl (8S,15S,19S)-8-({(1r,4S)-4-[({[(9H-fluoren-9-yl)methoxy]carbonyl}amino)methyl]cyclohexane-1-carbonyl}amino)-2,9,17-trioxo-3,10,16,18-tetraazahenicosane-15,19,21-tricarboxylate | 48% yield |  |  | final purity (method not given) (coupling step): 85% purity
13 | tri-tert-butyl (3S,10S,14S)-1-[(1r,4S)-4-(aminomethyl)cyclohexyl]-3-[(naphthalen-2-yl)methyl]-1,4,12-trioxo-2-[(6-oxo-1,6-dihydropyridin-2-yl)methyl]-2,5,11,13-tetraazahexadecane-10,14,16-tricarboxylate |  | 14% yield | 85% purity | 
14 | tri-tert-butyl (10S,14S)-1-{5-[({[(9H-fluoren-9-yl)methoxy]carbonyl}amino)methyl]pyridin-2-yl}-3-[(naphthalen-2-yl)methyl]-1,4,12-trioxo-2,5,11,13-tetraazahexadecane-10,14,16-tricarboxylate | 78% yield |  |  | final purity (method not given) (coupling step): 90% purity
15 | tri-tert-butyl (3S,10S,14S)-3-[([1,1′-biphenyl]-4-yl)methyl]-1-{(1r,4S)-4-[({[(9H-fluoren-9-yl)methoxy]carbonyl}amino)methyl]cyclohexyl}-1,4,12-trioxo-2,5,11,13-tetraazahexadecane-10,14,16-tricarboxylate | 25% yield |  |  | 
16 | N^6-{3-(3,4-dihydro-2H-1-benzopyran-6-yl)-N-[(1r,4S)-4-({2-[4,7,10-tris(carboxymethyl)-1,4,7,10-tetraazacyclododecan-1-yl]acetamido}methyl)cyclohexane-1-carbonyl]-D-alanyl}-N^2-{[(1S)-1,3-dicarboxypropyl]carbamoyl}-L-lysine |  | 26% yield | 95% purity | 
17 | N^6—{N-[(1r,4S)-4-(aminomethyl)cyclohexane-1-carbonyl]-L-tyrosyl}-N^2-{[(1S)-1,3-dicarboxypropyl]carbamoyl}-L-lysine |  | 73% yield | 99% purity | 
18 | tri-tert-butyl (3S,10S,14S)-1-[(1r,4S)-4-(aminomethyl)cyclohexyl]-3-[(3-fluorophenyl)methyl]-1,4,12-trioxo-2,5,11,13-tetraazahexadecane-10,14,16-tricarboxylate |  | 80% yield |  | 
19 | tri-tert-butyl (3S,10S,14S)-1-{(1r,4S)-4-[({[(9H-fluoren-9-yl)methoxy]carbonyl}amino)methyl]cyclohexyl}-3-[(3-fluorophenyl)methyl]-1,4,12-trioxo-2,5,11,13-tetraazahexadecane-10,14,16-tricarboxylate | 26% yield |  |  | 
20 | N^6—{N^6-acetyl-N^2-[(1r,4S)-4-(aminomethyl)cyclohexane-1-carbonyl]-L-lysyl}-N^2-{[(1S)-1,3-dicarboxypropyl]carbamoyl}-L-lysine |  |  | 89% purity | 
21 | tri-tert-butyl (3S,10S,14S)-1-{(1r,4S)-4-[({[(9H-fluoren-9-yl)methoxy]carbonyl}amino)methyl]cyclohexyl}-1,4,12-trioxo-3-{[3-(pentafluoro-lambda^6-sulfanyl)phenyl]methyl}-2,5,11,13-tetraazahexadecane-10,14,16-tricarboxylate | 15% yield |  |  | final purity (method not given) (coupling step): 99% purity
22 | formic acid-tri-tert-butyl (3S,10S,14S)-1-[(1r,4S)-4-(aminomethyl)cyclohexyl]-3-[([1,1′-biphenyl]-4-yl)methyl]-1,4,12-trioxo-2,5,11,13-tetraazahexadecane-10,14,16-tricarboxylate (1/1) |  | 54% yield | 98% purity | 
23 | tri-tert-butyl (3S,10S,14S)-1-[(1r,4S)-4-(aminomethyl)cyclohexyl]-3-[(2-methylphenyl)methyl]-1,4,12-trioxo-2,5,11,13-tetraazahexadecane-10,14,16-tricarboxylate |  |  | 80% purity | 
24 | tri-tert-butyl (3S,10S,14S)-3-[(naphthalen-2-yl)methyl]-1,4,12-trioxo-1-[4-({2-[4,7,10-tris(2-tert-butoxy-2-oxoethyl)-1,4,7,10-tetraazacyclododecan-1-yl]acetamido}methyl)phenyl]-2,5,11,13-tetraazahexadecane-10,14,16-tricarboxylate |  |  |  | conjugation yield (conjugation step): 55% yield; final purity (method not given) (conjugation step): 85% purity
25 | N^6—{N-[(1r,4S)-4-(aminomethyl)cyclohexane-1-carbonyl]-3-(pentafluoro-lambda^6-sulfanyl)-L-phenylalanyl}-N^2-{[(1S)-1,3-dicarboxypropyl]carbamoyl}-L-lysine |  | 48% yield | 99% purity | 
26 | tri-tert-butyl (7S,14S,18S)-7-({(1r,4S)-4-[({[(9H-fluoren-9-yl)methoxy]carbonyl}amino)methyl]cyclohexane-1-carbonyl}amino)-1,8,16-trioxo-1-(pyridin-3-yl)-2,9,15,17-tetraazaicosane-14,18,20-tricarboxylate | 70% yield |  |  | final purity (method not given) (coupling step): 98% purity
27 | (3S,10S,14S)-1-[(1r,4S)-4-({2-[4-({2-[{3-[bis(2-{[1-(carboxymethyl)-3-(hydroxy-kappaO)-6-methyl-2-(oxo-kappaO)-1,2-dihydropyridine-4-carbonyl]amino}ethyl)amino]propyl}(2-{[1-(carboxymethyl)-3-(hydroxy-kappaO)-6-methyl-2-(oxo-kappaO)-1,2-dihydropyridine-4-carbonyl]amino}ethyl)amino]ethyl}carbamoyl)-3-(hydroxy-kappaO)-6-methyl-2-(oxo-kappaO)pyridin-1(2H)-yl]acetamido}methyl)cyclohexyl]-3-[(naphthalen-2-yl)methyl]-1,4,12-trioxo-2,5,11,13-tetraazahexadecane-10,14,16-tricarboxylato(4−)(^232Th)Thorium |  | 92% yield |  | crude purity (method not given) (late stage modification step): 95% purity

Source: patent US20230072421A1 (Bayer AS, priority 2019, published 2023)
